Among all 300,000 compounds or so, about 5,400 (1.8%) were called active. This list was built around the results that the source calls inconclusive (neither active nor inactive); the mix of calls is not that of the screen. The call rests on the fitted dose curve; tested in HEK293 cells. Where the call is inconclusive, the potency comes from a doubtful curve fit.
test: qHTS for inhibitors of binding or entry into cells for Marburg Virus; conditions: Marburg virus pseudotyped entry inhibition, cell reporter; activity change, negative = inhibition: at 37.8 µM (top of the series) unless noted
On the % scale 0 is the no-effect control and ±100 the full control effect; potency means the concentration at half of the fitted maximal effect.

SMILES	Potency	activity change, negative = inhibition
CCc1ccc(N2C(=O)NC(=O)/C(=C\c3cccn3CCOc3ccc(C(C)C)cc3)C2=O)cc1	inconclusive: 14.1 µM [inhibitor, partial curve, poor fit]	
CN(C)c1nc(OCCOC(=O)COc2ccc(Cl)cc2Cl)nc(N(C)C)n1	inconclusive: 0.082 µM [activator, partial curve, poor fit]	
CC(C)C(=O)N1CCC(CN=Cc2c(O)n(C3CCCCC3)c(=O)n(C3CCCCC3)c2=O)CC1	inconclusive: 12.6 µM [inhibitor, partial curve, poor fit]	
O=C(Nc1ccc(Cl)cc1)C1=Cc2ccccc2OC1	inconclusive: 15.8 µM [inhibitor, single point]	
COCCNC(=O)c1c(-c2ccccc2)c(-c2ccccc2)nn(C)c1=O		inactive: 0.812% [at 46.1 µM]
CCOC(=O)c1c(NC(=O)COC(=O)c2cccnc2OCC)sc(C(=O)N(CC)CC)c1C	inconclusive: 10 µM [inhibitor, partial curve, poor fit]	
Cc1cc(C)n(-c2cc(Cl)ccc2[N+](=O)[O-])n1	inconclusive: 0.0041 µM [inhibitor, full curve, poor fit]	
Cc1cccc(N2CCN(Cc3ccc([N+](=O)[O-])o3)CC2)c1C	inconclusive: 17.8 µM [inhibitor, partial curve, poor fit]	
Cc1ccc2c(c1)c(=O)c1c3n2CCN(C(=O)CCl)C3CC1 (stereo not given)	inconclusive: 22.4 µM [inhibitor, single point]	
O=C(CCn1cnc2ccccc2c1=O)Nc1nc(-c2ccc(Br)cc2)cs1	inconclusive: 6.31 µM [inhibitor, single point]	
c1ccc(Nc2nc(NCCN3CCOCC3)nc(Nc3ccccc3)n2)cc1	inconclusive: 10 µM [inhibitor, partial curve, poor fit]	
O=C(Nc1nc(-c2cccs2)cs1)c1ccc(Cl)cc1	inconclusive: 35.5 µM [inhibitor, single point]	
NC(=O)COC(=O)c1ccc(C(=O)C(=O)c2ccccc2)cc1		inconclusive: 28.4% [activator] [at 46.1 µM]
COc1ccccc1NC(=S)NC(NC(C)=O)C(Cl)(Cl)Cl (stereo not given)	inconclusive: 2.82 µM [activator, single point]	
COc1ccc(NC(=O)CSc2nnc(Cn3cnc4ccccc43)n2C)cc1		inactive: 0.999%
Cc1ccc(-c2nnc(-c3ccc(NC(=O)Cc4cccs4)cc3)o2)cc1	inconclusive: 8.2 µM [inhibitor, partial curve]	
CC(=O)c1c(C)[nH]c(C(=O)Nc2ccc(Cl)cc2F)c1C	inconclusive: 0.562 µM [activator, full curve, poor fit]	
COc1ccc(NC(=O)c2cc(F)c(F)cc2Cl)cc1Cl		inactive: 15.2% [at 46.1 µM]
Cc1ccc(Cl)cc1NC(=O)Nc1nnc(N2CCCC(C)C2)s1 (stereo not given)	inconclusive: 35.5 µM [inhibitor, partial curve, poor fit]	
CCn1c(SC/C=C/c2ccccc2)nnc1-c1cccs1	inconclusive: 9.2 µM [inhibitor, partial curve, poor fit]	
CCC(=O)Nc1nc(C)c(-c2csc(Nc3cccc(C(=O)O)c3)n2)s1	inconclusive: 1.26 µM [inhibitor, single point]	
COc1ccccc1N1CCN(C(=O)c2ccc(C(C)(C)C)cc2)CC1		inactive: -29.2%

SMILES	Potency	activity change, negative = inhibition
CCN(CC)c1nc(C(N)=O)cc(-c2ccccc2)n1	inconclusive: 35.5 µM [inhibitor, single point]	
O=C1CNC(=S)N1CCc1ccc(Cl)cc1	inconclusive: 35.5 µM [inhibitor, single point]	
Cc1cccc2c1-c1sc(C(=O)Nc3cccc([N+](=O)[O-])c3C)cc1CO2	inconclusive: 35.5 µM [inhibitor, single point]	
COc1cc2nc(N3CCN(C(=O)OCc4ccccc4)C(C(=O)NC(C)(C)C)C3)nc(N)c2cc1OC (stereo not given)	active: 11.2 µM	
Cc1ccc(SCCNC(=O)/C=C/c2ccc([N+](=O)[O-])cc2)cc1	inconclusive: 0.282 µM [inhibitor, partial curve, poor fit]	
CC(=O)c1cn(CCOc2cc(C)ccc2C)c2ccccc12	active: 1.58 µM	
Cc1ccc(/C=N\NC(=O)c2cc(OCC(F)(F)F)ccc2OCC(F)(F)F)cc1	inconclusive: 14.1 µM [inhibitor, single point]	
O=C(Nc1ccc(S(=O)(=O)N2CCOCC2)cc1)c1ccc(F)cc1		inactive: 1.79% [at 46.1 µM]
COc1ccc(C(=O)Nc2ccc(N3CCN(C)CC3)cc2)cc1[N+](=O)[O-]	inconclusive: 0.562 µM [inhibitor, full curve, poor fit]	
O=C(NCc1ccc(Cl)cc1)c1ccc(-c2ccccc2C(F)(F)F)o1		inactive: 11.2%
N#CCCn1cc(C=O)c(-c2cccs2)n1		inactive: -7.78% [at 46.1 µM]
COc1ccc(/C=N/NC(=O)c2cccc([N+](=O)[O-])c2)cc1O	inconclusive: 2.82 µM [inhibitor, full curve, poor fit]	
CCN(CC(=O)Nc1ccccc1C(F)(F)F)C(=O)CCS(=O)(=O)c1ccc(Cl)cc1		inactive: -15.7%
COc1ccc(OC2C(=O)N(Cc3ccc4c(c3)OCO4)C2c2sccc2C)cc1 (stereo not given)	inconclusive: 23.1 µM [inhibitor, partial curve, poor fit]	
COC(=O)c1ccc(NC(=S)Nc2cccc(C)n2)cc1	inconclusive: 7.08 µM [inhibitor, full curve, poor fit]	
CCc1ccc(NC(=O)COC(=O)c2ccc(Cl)c(S(=O)(=O)N3CCCCCC3)c2)cc1		inactive: 1.93%
COc1ccc(/C=N/NC(=O)c2ccc(N)cc2)cc1Cn1cc([N+](=O)[O-])cn1	active: 7.94 µM	
CCCSc1nnc(CSc2nc(C)cc(C)n2)n1C		inactive: 0.641% [at 46.1 µM]
O=C(/C=C/c1ccc(OC2CSC2)cc1)c1ccc(Cl)cc1	inconclusive: 22.4 µM [activator, single point]	
CC(OC(=O)c1c2c(nc3ccccc13)/C(=C\c1ccc3c(c1)OCO3)CCC2)C(=O)Nc1ccc(S(N)(=O)=O)cc1 (stereo not given)	inconclusive: 0.708 µM [activator, partial curve, poor fit]	
CCCCCc1c(O)c2ccccc2[nH]c1=O	inconclusive: 2.59 µM [activator, full curve, poor fit]	
COc1ccccc1CNC(=O)COC(=O)c1ccc(Cl)c(N)c1		inactive: -10.7% [at 46.1 µM]

Filtered by structure: the entries above with a CF3 group.
SMILES	Potency	activity change, negative = inhibition
Cc1ccc(/C=N\NC(=O)c2cc(OCC(F)(F)F)ccc2OCC(F)(F)F)cc1	inconclusive: 14.1 µM [inhibitor, single point]	
O=C(NCc1ccc(Cl)cc1)c1ccc(-c2ccccc2C(F)(F)F)o1		inactive: 11.2%
CCN(CC(=O)Nc1ccccc1C(F)(F)F)C(=O)CCS(=O)(=O)c1ccc(Cl)cc1		inactive: -15.7%

Fetched one by one from the list above (3):
SMILES	Potency	activity change, negative = inhibition
COc1ccc(OC2C(=O)N(Cc3ccc4c(c3)OCO4)C2c2sccc2C)cc1 (stereo not given)	inconclusive: 23.1 µM [inhibitor, partial curve, poor fit]	
O=C(NCc1ccc(Cl)cc1)c1ccc(-c2ccccc2C(F)(F)F)o1		inactive: 11.2%
Cc1ccc(SCCNC(=O)/C=C/c2ccc([N+](=O)[O-])cc2)cc1	inconclusive: 0.282 µM [inhibitor, partial curve, poor fit]	

Next structures follow:

SMILES	Potency	activity change, negative = inhibition
CC(C)(C)C(=O)N1CCN(S(=O)(=O)c2ccc3c(c2)OCCCO3)CC1	inconclusive: 11.2 µM [inhibitor, partial curve, poor fit]	
Cc1ccc(NC(=O)c2ccccc2NS(=O)(=O)c2ccc(Cl)s2)cc1S(=O)(=O)N1CCOCC1	inconclusive: 15.8 µM [inhibitor, partial curve, poor fit]	
COc1ccc(CCNC(=O)C2CCCN(S(=O)(=O)c3ccc(F)cc3)C2)cc1OC (stereo not given)		inactive: 7.66%
Fc1cnc(N2CCOCC2)nc1N1CCc2ccccc21	inconclusive: 15.8 µM [inhibitor, single point]	
Cc1cc(NC(=O)CCC(=O)N(Cc2ccco2)C2(C(=O)NC3CCCCC3)CCCCC2)no1	inconclusive: 25.1 µM [inhibitor, single point]	
O=C(NCCc1ccccc1)c1cccc(NC(=O)c2ccccc2)c1	inconclusive: 0.396 µM [activator, full curve, poor fit]	
Nc1nc2ccc(N3CCOCC3)cc2s1	inconclusive: 14.1 µM [inhibitor, single point]	
Cc1c([N+](=O)[O-])c(C(=O)Nc2ccc3c(c2)OCCO3)nn1C	inconclusive: 1 µM [activator, full curve, poor fit]	
COc1ccc(-c2noc(-c3ccc(Cl)cc3[N+](=O)[O-])n2)cc1OC	inconclusive: 3.55 µM [activator, full curve, poor fit]	
CN(CCO)C1=NS(=O)(=O)c2cc([N+](=O)[O-])ccc21	inconclusive: 32.6 µM [inhibitor, single point]	
CC(NC(=O)c1ccc2c(c1)N(Cc1ccc(Cl)cc1)C(=O)c1ccccc1S2=O)c1ccccc1 (stereo not given)	inconclusive: 28.2 µM [inhibitor, single point]	
CCCCc1nc2ccccc2c(NC(=O)CN2CCN(C)CC2)c1CCC	inconclusive: 31.6 µM [inhibitor, single point]	
O=C(NN1C(=O)C2C3C=CC(O3)C2C1=O)c1cccc(Br)c1 (stereo not given)		inactive: 7.57% [at 46.1 µM]
COCCN1CCn2c(nc3cc(NC(=O)c4cccs4)ccc32)C1		inactive: 13%
Cc1cccc(N=CC=C2OC(C)(C)C(C)(C)O2)c1	inconclusive: 3.66 µM [inhibitor, partial curve, poor fit]	
CCc1ccc(C2=NNC(=Nc3cccc(S(=O)(=O)N(C)C)c3)SC2)cc1	inconclusive: 22.4 µM [inhibitor, partial curve, poor fit]	
c1ccc(Nc2c3c(nc4ccccc24)CCC3)cc1	inconclusive: 35.5 µM [inhibitor, single point]	
Cc1sc(NC(=O)c2ccccc2F)c(CN2CCCCC2C)c1C (stereo not given)	inconclusive: 1.26 µM [activator, single point]	
COc1cccc(NC(=S)C(C#N)=C2N(C)c3ccccc3N2C)c1	inconclusive: 3.55 µM [inhibitor, single point]	
CN(C)c1ccc(C(CNC(=O)c2ccccc2)c2c[nH]c3ccccc23)cc1 (stereo not given)	inconclusive: 16.4 µM [inhibitor, single point]	
Cc1ccc(-c2csc(N/N=C/c3ccco3)n2)c(C)c1	active: 1.78 µM	

Reference: PubChem BioAssay AID540276 (National Center for Advancing Translational Sciences (NCATS), 2011)
